Values quoted from earlier work, collected in patent publication US20090291958A1, “Substituted PDE5 inhibitors” (Auspex Pharmaceuticals, Inc., priority 2006, published 2009).
Some of these results come from one statement about several compounds together.

Legend:
[1] = in vivo
PDE6 = settings: share of patients; attributed to PDE6 modulation

Row | SMILES | half-life [1] [h] | patients with side effects of chromatopsia, increased sensitivity to light, and blurred vision (PDE6)
1 | CCCc1nn(C)c2c(=O)[nH]c(-c3cc(S(=O)(=O)N4CCN(C)CC4)ccc3OCC)nc12 [sildenafil] | 4 to 5 | –
2 | CCCc1nc(C)c2c(=O)[nH]c(-c3cc(S(=O)(=O)N4CCN(CC)CC4)ccc3OCC)nn12 [vardenafil] | 4 to 5 | 2-3%
